From publication PMC3720591
These are yes or no findings as the source states them, for the method shown. In cells and extracts the contact can be indirect. Where a sequence is shown, tags or fusion partners need not be part of it.

Target: T1, Flag-tagged p45 (mouse) (UniProt Q8CJ26)
T1 sequence: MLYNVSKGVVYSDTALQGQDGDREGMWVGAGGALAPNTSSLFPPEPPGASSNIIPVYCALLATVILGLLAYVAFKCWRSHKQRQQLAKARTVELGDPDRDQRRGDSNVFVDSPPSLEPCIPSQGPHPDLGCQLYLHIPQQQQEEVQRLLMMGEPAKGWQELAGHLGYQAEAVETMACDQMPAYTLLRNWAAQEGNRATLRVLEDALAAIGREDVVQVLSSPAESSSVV
Test: co-IP; HEK293 cells with Flag-p45 and V5-tagged FADD constructs; lysis in RIPA buffer (150 mM NaCl, 1% NP-40, 0.5% DOC, 0.1% SDS, 50 mM Tris pH 8.0); immunoprecipitated with anti-Flag M2, blotted with anti-V5

- binding: no binding
Substance: V5-tagged FADD-ΔDED (mouse) (domain or fragment)
